Source: patent publication US7709645B2, “Pyrrolo-pyridine kinase modulators” (SGX Pharmaceuticals, Inc., priority 2004, dated 2010)
Some of these results come from one statement about several compounds together. At least one compound was matched to its structure with a doubt left.

What was measured:
[1] = target: T1, Abl T315I kinase domain (unphosphorylated) (Mus musculus, UniProt P00520, T315I); assay: Abl_T315I Bioassay (c-Abl PK/LDH coupled enzyme assay); assay type: biochemical; conditions: 10 μM ATP
T1 construct: purified and unphosphorylated T315I Abl kinase domain; made in house; host or cells: E. coli BL21(DE3) strains
T1 sequence (P00520 242-493 T315I limits assumed): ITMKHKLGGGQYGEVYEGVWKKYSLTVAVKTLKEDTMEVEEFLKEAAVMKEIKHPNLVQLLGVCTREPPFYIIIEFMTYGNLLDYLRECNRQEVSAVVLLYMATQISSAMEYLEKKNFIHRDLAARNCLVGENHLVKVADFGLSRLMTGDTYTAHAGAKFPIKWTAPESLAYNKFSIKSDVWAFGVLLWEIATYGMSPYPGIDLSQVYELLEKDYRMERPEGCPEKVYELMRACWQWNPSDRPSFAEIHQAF
Text: Although the first of these examples uses the kinase domain of a mutant form of Abl T315I (“Abl T315I KD”), the kinase assays may use various forms of mutant and wild type enzymes, including, for example, the entire protein, the kinase domain, or a portion thereof (e.g. Abl Y393F). The kinases used in the assays may also be of varying phosphorylation states. In the c-Abl example, a mutant kinase at a zero phosphorylation state was used.
In the c-Abl Pyruvate Kinase (PK)/Lactate Dehydrogenase (LDH) Coupled Assay the protein kinase dependant phosphorylation of a substrate peptide was coupled to the oxidation of NADH. The oxidation of NADH to NAD+ was detected by monitoring a decrease in absorbance at 340 nm.
Materials: Abl substrate peptide=EAIYAAPFAKKK (SEQ ID NO:1)-OH (Biopeptide, San Diego, Calif.); βNADH (Sigma Cat#N-8129, FW=709.4); 2M MgCl2; 1M HEPES buffer, pH 7.5; Phosphoenolpyruvate (PEP) (Sigma Cat#P-7002, FW=234); Lactate dehydrogenase (LDH) (Worthington Biochemical Cat#2756); Pyruvate Kinase (PK) (Sigma Cat#P-9136); ATP (Sigma Cat#A-3377, FW=551); Greiner 384-well UV star plate; and purified and unphosphorylated T315I Abl kinase domain.
Stock Solutions: 10 mM NADH (7.09 mg/ml in miliQH2O) made fresh daily; 10 mM Abl substrate peptide (13.4 mg/ml in miliQH2O) stored at −20° C.; 100 mM HEPES buffer, pH 7.5 (5 ml 1M stock+45 ml miliQH2O); 100 mM MgCl2 (5 ml 2M MgCl2+95 ml dH2O); 100 mM PEP (23.4 mg/ml in dH2O) stored at −20° C.; 10 mM ATP (5.51 mg/ml in dH2O) stored at −20° C. (diluted 50 μl into total of 10 ml miliQH2O daily=50 μM ATP working stock); 1000 U/ml PK (U/mg varies with lot) flash-frozen under liquid N2 and stored at −80° C.; and 1000 U/ml LDH (U/mg varies with lot) flash-frozen under liquid N2 and stored at −80° C.
Standard Assay Setup for 384-well format (50 μl reaction): 300 μM NADH; 10 mM MgCl2; 2 mM PEP; 45 U/ml PK; 60 U/ml LDH; 200 μM Abl substrate peptide; 2.5 μl test compound (in DMSO); 2 μg/ml Abl kinase domain; 10 μM ATP; 100 mM HEPES buffer. Positive controls contained DMSO with no test compound. Negative controls contained 5 μl of 0.5M EDTA (50 mM in the assay). The dephosphorylated form of the c-Abl T315I mutant was used in the biochemical screening assays. The kinase reaction was initiated at time t=0 by the addition of ATP.
Activity was measured by following the time-dependent loss of NADH by absorbance spectroscopy at 340 nm. The linear portion of the resulting progress curve was then analyzed by linear regression to get the activity in absorbance units/time, reported as the slope of that best fit line (moles/unit time can be calculated from using molar extinction coefficient for NADH at 340 nm, 6250M^−1 cm^−1).
Data was evaluated using the equation: Z′=1−[3*(σ++σ−)/|μ+−μ−|](Zhang, et al., 1999 J Biomol Screening 4(2) 67-73), where μ denotes the mean and σ the standard deviation. The subscript designates positive or negative controls. The Z′ score for a robust screening assay should be ≧0.50. The typical threshold=μ+−3*σ+. Any value that falls below the threshold was designated a “hit”.
Dose response was analyzed using the equation: y=min+{(max−min)/(1+10^[compound]−logIC50)}, where y is the observed initial slope, max=the slope in the absence of inhibitor, min=the slope at infinite inhibitor, and the IC50 is the [compound] that corresponds to ½ the total observed amplitude (Amplitude=max−min).
To measure modulation, activation, or inhibition of Abl KD, a test compound was added to the assay at a range of concentrations. Inhibitors may inhibit Abl KD activity at an IC50 in the micromolar range, the nanomolar range, or, for example, in the subnanomolar range.
An open-reading frame for c-Abl was amplified from a Mus musculus (mouse) cDNA library prepared from freshly harvested mouse liver using a commercially available kit (Invitrogen) by PCR using the following primers: […]
The c-Abl T315I KD (kinase domain) was purified as follows. […]

Ba/F3-M351T cells = assay: Ba/F3-M351T XTT Assay (cell survival); assay type: cell-based; conditions: 72 hours
Ba/F3-E255K cells = assay: Ba/F3-E255K XTT Assay (cell survival); assay type: cell-based; conditions: 72 hours

Structure (SMILES)	IC50 [1] [µM]	IC50 (Ba/F3-M351T cells) [µM]	IC50 (Ba/F3-E255K cells) [µM]
CCN(CC)CCN1CCN(C(=O)c2cc(-c3cnc4[nH]cc(-c5ccccc5OC)c4c3)ccc2O)CC1 [AE27]	< 0.05		
COc1ccccc1-c1c[nH]c2ncc(-c3ccc(O)c(C(=O)N4CCN(c5ccncc5)CC4)c3)cc12 [AE28]	< 0.05		
COc1cccc(-c2c[nH]c3ncc(-c4cccc(C(=O)N5CCOCC5)c4)cc23)c1OC [AE32]	< 0.05		
CCOc1cc(Cl)ccc1-c1c[nH]c2ncc(-c3cccc(C(=O)N4CCOCC4)c3)cc12 [AE33]	< 0.05		
CCOc1ccc(C)cc1-c1c[nH]c2ncc(-c3cccc(C(=O)N4CCOCC4)c3)cc12 [AE34]	< 0.05		
COc1c(F)cccc1-c1c[nH]c2ncc(-c3cccc(C(=O)N4CCOCC4)c3)cc12 [AE35]	< 0.05		
c1cc(-c2c[nH]c3ncc(-c4ccc5[nH]ccc5c4)cc23)[nH]n1 [AE50]	< 0.05		
COc1cc(-c2cnc3[nH]cc(-c4ccccc4OC)c3c2)ccc1OCC(N)=O [AE59]	< 0.05		
COc1cc(-c2cnc3[nH]cc(-c4ccccc4OC)c3c2)ccc1OCCCC(=O)O [AE60]	< 0.05		
COc1ccccc1-c1c[nH]c2ncc(-c3ccc(NS(C)(=O)=O)cc3)cc12 [AE61]	< 0.05		
COc1ccccc1-c1c[nH]c2ncc(-c3ccc(C(N)=O)cc3)cc12 [AE62]	< 0.05		
COc1ccccc1-c1c[nH]c2ncc(-c3ccc(CCCC(=O)O)c(O)c3)cc12 [AE63]	< 0.05		
CCN1CCN(C(=O)c2cc(F)cc(-c3cnc4[nH]cc(-c5ccccc5OC)c4c3)c2)CC1 [AE101]	< 0.05		
COc1ccccc1-c1c[nH]c2ncc(-c3ccc(NC(=O)N4CCN(C)CC4)c(C(=O)N(C)C)c3)cc12 [AE103]	< 0.05	< 0.5	< 1
CCc1cc(-c2cnc3[nH]cc(-c4ccccc4OC)c3c2)cc(C(=O)N(C)CCN(C)C)c1O [AE105]	< 0.05		
CCOC(=O)Nc1c(F)cc(-c2cnc3[nH]cc(-c4ccccc4OC)c3c2)cc1C(=O)N(C)C [AE110]	< 0.05	< 0.5	
COc1ccccc1-c1c[nH]c2ncc(-c3ccc(NS(C)(=O)=O)c(C(=O)N(C)C)c3)cc12 [AE113]	< 0.05		
COc1ccccc1-c1c[nH]c2ncc(-c3ccc4c(c3)C(=O)N(CCN(C)C)C(C)(C)N4)cc12 [AE114]	< 0.05		
COc1ccccc1-c1c[nH]c2ncc(-c3cc(Cl)c(N)c(C(=O)N4CCN(Cc5ccncc5)CC4)c3)cc12 [AE115]	< 0.05		
COc1ccccc1-c1c[nH]c2ncc(-c3cc(C(=O)N(C)CCN(C)C)c4nc[nH]c4c3)cc12 [AE116]	< 0.05		
COc1ccccc1-c1c[nH]c2ncc(-c3ccc(NC(=O)NN(C)CCN(C)C)c(C(=O)N(C)C)c3)cc12 [AE120]	< 0.05		< 1

Structure (SMILES)	IC50 [1] [µM]	IC50 (Ba/F3-M351T cells) [µM]	IC50 (Ba/F3-E255K cells) [µM]
COc1ccccc1-c1c[nH]c2ncc(-c3ccc(NC(=O)CNCCO)c(C(=O)N(C)C)c3)cc12 [AE122]	< 0.05		< 1
COc1ccccc1-c1c[nH]c2ncc(-c3ccc(O)c(/C(C)=N/O)c3)cc12 [AE123]	< 0.05		
COc1ccccc1-c1c[nH]c2ncc(-c3cc(OC)c(O)c(C(=O)N(C)CCN(C)C)c3)cc12 [AE125]	< 0.05		
COc1ccccc1-c1c[nH]c2ncc(-c3cc(Cl)c(O)c(C(=O)N4CCOCC4)c3)cc12 [AE127]	< 0.05		
COc1ccccc1-c1c[nH]c2ncc(-c3ccc(NC(=O)NNCC(F)(F)F)c(C(=O)N(C)C)c3)cc12 [AE129]	< 0.05		< 1
COc1ccccc1-c1c[nH]c2ncc(-c3cc(F)cc(C(=O)N4CCN(C5CCN(C)CC5)CC4)c3)cc12 [AE132]	< 0.05		
COc1ccccc1-c1c[nH]c2ncc(-c3ccc(NC(=O)[C@@H](NC(C)C)C(C)C)c(C(=O)N(C)C)c3)cc12 [AE136]	< 0.05	< 0.5	
CNc1ccc(-c2cnc3[nH]cc(-c4ccccc4OC)c3c2)cc1C(=O)N(C)C [AE137]	< 0.05	< 0.5	
COc1ccccc1-c1c[nH]c2ncc(-c3ccc(C)c(C(=O)N4CCN(CCN(C)C)CC4)c3)cc12 [AE138]	< 0.05	< 0.5	
COc1ccccc1-c1c[nH]c2ncc(-c3ccc(Br)c(C(=O)N4CCN(CCN(C)C)CC4)c3)cc12 [AE139]	< 0.05		
COc1ccccc1-c1c[nH]c2ncc(-c3ccc(NC(=O)NC(C)C)c(C(=O)N(C)C)c3)cc12 [AE141]	< 0.05	< 0.5	
COc1ccccc1-c1c[nH]c2ncc(-c3ccc(NC(C)C)c(C(=O)N(C)C)c3)cc12 [AE142]	< 0.05		
COc1ccccc1-c1c[nH]c2ncc(-c3cc(F)cc(C(=O)N4CCN(CC(=O)N(C)C)CC4)c3)cc12 [AE144]	< 0.05		
COc1ccccc1-c1c[nH]c2ncc(-c3cc(F)c(NC(=O)[C@@H]4CCCN4)c(C(=O)N(C)C)c3)cc12 [AE146]	< 0.05	< 0.5	
COc1ccccc1-c1c[nH]c2ncc(-c3ccc(NC(=O)OCC(C)C)c(C(=O)N(C)C)c3)cc12 [AE147]	< 0.05		
COc1ccccc1-c1c[nH]c2ncc(-c3ccc(NCC(=O)NC(C)C)c(C(=O)N(C)C)c3)cc12 [AE149]	< 0.05		
COc1ccccc1-c1c[nH]c2ncc(-c3ccc(C(=O)N4CCN(CCN5CCOCC5)CC4)cc3)cc12 [AE150]	< 0.05		
CNNC(=O)Nc1ccc(-c2cnc3[nH]cc(-c4ccccc4OC)c3c2)cc1C(=O)N(C)C [AE151]	< 0.05	< 0.5	< 1
COc1ccccc1-c1c[nH]c2ncc(-c3ccc(NC(=O)N(C)C)c(C(=O)N(C)C)c3)cc12 [AE152]	< 0.05	< 0.5	< 1
COc1ccccc1-c1c[nH]c2ncc(-c3cc(F)c4[nH]c(=O)n(CCN(C)C)c(=O)c4c3)cc12 [AE155]	< 0.05		
